Reference: PubChem BioAssay AID504834 (National Center for Advancing Translational Sciences (NCATS), 2011)
About 22,000 (6.9%) of roughly 320,000 compounds were called active. Inconclusive means that the source gave no clear call. Such entries were picked first, then a sample of the others. The call rests on the fitted dose curve; in most records, active means well fitted inhibition curve with a large enough effect; inconclusive means small, poorly fitted or top-dose-only effect, or another doubt; inactive means no such curve, though single readings can be large or run the other way. A potency beside an inconclusive call is a rough fit, not a confirmed value.

Assay: Primary qHTS for delayed death inhibitors of the malarial parasite plastid, 96 hour incubation
Conditions: P. falciparum luciferase reporter growth; series mostly up to 28.7 µM; activity change, negative = inhibition: at the top concentration
In short: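 Plates of compound plus infected erythrocytes (2% hematocrit, 0.05% parasitemia final) incubate 96 hours, 37 C, 5% CO2. Detection reagent added; reduced luminescence from the parasites' luciferase reporter flags inhibition.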
On the % scale 0 is the no-effect control and ±100 the full control effect; potency means the concentration at half of the fitted maximal effect.

Row | Compound | Potency | activity change, negative = inhibition
1 | CC(C)(C)c1cc(CCC(=O)NCc2ccncc2)cc(C(C)(C)C)c1O | inconclusive: 9.28 µM [inhibitor, single point] | –
2 | CSc1nc2ccc(NC(=O)C3CC(=O)N(Cc4ccco4)C3)cc2s1 (stereo unspecified) | inconclusive: 18.5 µM [inhibitor, single point] | –
3 | Cc1cc2c(cc1C)NC(=O)CC(C(F)(F)C(F)(F)C(F)(F)F)=N2 | inconclusive: 10.4 µM [inhibitor, single point] | –
4 | O=[N+]([O-])c1ccc(NCc2ccc3c(c2)OCO3)cc1 | inconclusive: 13.1 µM [inhibitor, partial curve] | –
5 | Cc1cccc(Nc2nnc(SCC(=O)Nc3cccc(S(=O)(=O)N4CCCCC4)c3)s2)c1 | – | inactive: -15.7%
6 | COc1ccccc1NC(=O)CSc1nc(N)c(C#N)cc1C#N | inconclusive: 0.0165 µM [inhibitor, full curve, poor fit] | –
7 | CCOc1ccccc1/C=N/NC(=O)c1nnn(-c2nonc2N)c1CN1CCC(C)CC1 | inconclusive: 4.65 µM [inhibitor, partial curve, poor fit] | –
8 | CCCN(CC(=O)Nc1ccccc1C)C(=O)CSc1ccccc1C | – | inactive: -12.4%
9 | CCn1c(CNC(=O)Cc2ccc(OC)cc2)nnc1SCCOc1ccccc1 | inconclusive: 11.7 µM [inhibitor, partial curve] | –
10 | CCOc1ccc2oc(C(=O)N3CCN(c4ccccn4)CC3)c(C)c2c1 | active: 13.1 µM | –
11 | Cc1cccc(/C=C/c2onc(C)c2S(=O)(=O)N2CCC(C(=O)NC(C)(C)C)CC2)c1 | inconclusive: 18.5 µM [inhibitor, single point] | –
12 | COc1cccc(NC(=S)NN=C2CCCCCC2)c1 | inconclusive: 9.28 µM [inhibitor, partial curve, poor fit] | –
13 | CC(=O)NCCOc1cccc2ccccc12 | inconclusive: 18.5 µM [inhibitor, single point] | –
14 | CC(C)n1cc(CN2CCCC(C(=O)Nc3ccccc3Oc3cccnc3)C2)cn1 (stereo unspecified) | – | inactive: 0%
15 | CCOc1ccc(NC(=O)CC2C(=O)N(c3ccc(OC)cc3)C(=S)N2Cc2ccccn2)cc1 (stereo unspecified) | inconclusive: 18.5 µM [inhibitor, single point] | –
16 | Cc1ccc(Cl)cc1N1CCN(C(=O)c2ccc(CS(=O)Cc3ccc(Cl)cc3)o2)CC1 (stereo unspecified) | inconclusive: 18.5 µM [inhibitor, single point] | –
17 | NC(=S)N=Nc1ccc(NN=C(N)N)cc1 | inconclusive: 1.51 µM [inhibitor, full curve, poor fit] | –
18 | O=C(Oc1cc(-c2ccccc2)no1)c1ccc(Cl)cc1 | – | inactive: 6.75%
19 | COc1ccc(N(C(C)=O)C2C=CS(=O)(=O)C2)c(OC)c1 (stereo unspecified) | active: 10.4 µM | –
20 | O=C(Nc1ccc2c(c1)OCO2)C1CCCN(S(=O)(=O)c2cccs2)C1 (stereo unspecified) | inconclusive: 18.5 µM [inhibitor, single point] | –
21 | COc1ccc(CCNC(=O)CCOc2cc(C)ccc2C)cc1OC | inconclusive: 10.4 µM [inhibitor, single point] | –
22 | Cc1ccccc1OCC(=O)NN1Cc2ccccc2C1=N | inconclusive: 10.4 µM [inhibitor, single point] | –

Record cards, from the list above.
CSc1nc2ccc(NC(=O)C3CC(=O)N(Cc4ccco4)C3)cc2s1 (stereo unspecified) is entered as Potency: inconclusive: 18.5 µM [inhibitor, single point]
O=[N+]([O-])c1ccc(NCc2ccc3c(c2)OCO3)cc1 is entered as Potency: inconclusive: 13.1 µM [inhibitor, partial curve]
COc1ccc(N(C(C)=O)C2C=CS(=O)(=O)C2)c(OC)c1 (stereo unspecified) is entered as Potency: active: 10.4 µM
Cc1cccc(/C=C/c2onc(C)c2S(=O)(=O)N2CCC(C(=O)NC(C)(C)C)CC2)c1 is entered as Potency: inconclusive: 18.5 µM [inhibitor, single point]

The listing continues:

Row | Compound | Potency | activity change, negative = inhibition
23 | CCn1cc(CN2CCC(n3nccc3NC(=O)CCOc3ccccc3)CC2)cn1 | inconclusive: 0.0033 µM [inhibitor, full curve, poor fit] | –
24 | CC(C)(C)NC(=O)[C@]1(C)CCC[C@@]2(C)C3CC[C@@]4(C)C[C@]3(CCC21)CC4=O (stereo partly specified) | inconclusive: 16.5 µM [inhibitor, single point] | –
25 | O=C(Cc1ccc(Nc2nc(=S)[nH]c3ccccc23)cc1)NC1CCCCC1 | inconclusive: 10.4 µM [inhibitor, partial curve] | –
26 | Cc1cc(C)n(Cc2ccc(C(=O)N/N=C/c3ccc(-c4ccc([N+](=O)[O-])cc4)o3)o2)n1 | active: 5.22 µM | –
27 | COc1ccc2[nH]c(C(=O)O)c(CCC(=O)O)c2c1 | inconclusive: 4.15 µM [inhibitor, single point] | –
28 | COCCN(C(=O)CCc1nnc(Cc2c[nH]c3ccccc23)o1)C(C)C | inconclusive: 18.5 µM [inhibitor, single point] | –
29 | O=C(NCc1cc(C(F)(F)F)cc(C(F)(F)F)c1)C12CN(Cc3ccccc3)CC1C(c1cccc([N+](=O)[O-])c1)=NO2 (stereo unspecified) | inconclusive: 10.4 µM [inhibitor, single point] | –
30 | Cc1ccc(Oc2nc3ccccc3n3cccc23)cc1 | – | inactive: 6.78%
31 | COc1ccc(-c2cn[nH]c2-c2ccc(OC)cc2O)cc1 | active: 11.7 µM | –
32 | COc1ccc(-c2oc3cccnc3c2C#CCO)cc1 | inconclusive: 18.5 µM [inhibitor, single point] | –
33 | Oc1ccccc1Nc1nc(-c2ccccc2O)nc2ccccc12 | active: 1.31 µM | –
34 | Cc1cc(C)c2oc(C(=O)Nc3ccc(S(=O)(=O)Nc4nccc(C)n4)cc3)cc(=O)c2c1 | inconclusive: 9.28 µM [inhibitor, single point] | –
35 | O=C(Nc1nc2ccccc2s1)c1ccc([N+](=O)[O-])o1 | inconclusive: 6.57 µM [inhibitor, partial curve] | –
36 | COc1ccccc1-c1cc(C(=O)NC(C)c2ccccc2)no1 (stereo unspecified) | inconclusive: 10.4 µM [inhibitor, single point] | –
37 | Cc1[nH]c(=O)[nH]c(=O)c1S(=O)(=O)N1CCCC(C(=O)NCCC2=CCCCC2)C1 (stereo unspecified) | inconclusive: 18.5 µM [inhibitor, single point] | –
38 | COc1ccc(CN(C)S(=O)(=O)c2nnc(NC(=O)c3cccc(F)c3)s2)cc1 | – | inactive: 56.2%
39 | Nc1nc(Nc2ccccc2)nc(N2CCOCC2)c1[N+](=O)[O-] | inconclusive: 11.7 µM [inhibitor, single point] | –
40 | CC(=O)N/C(=C\c1ccccc1)C(=O)OCc1cc(C)ccc1C | – | inactive: -3.7%
41 | CC(C)CNC(=O)CSc1ccc(S(=O)(=O)N2CCN(C)CC2)cn1 | inconclusive: 18.5 µM [inhibitor, single point] | –
42 | COc1cc(C2C(C(C)=O)=C(O)C(=O)N2c2ccc(Br)cn2)ccc1O (stereo unspecified) | inconclusive: 8.28 µM [inhibitor, partial curve, poor fit] | –
43 | Cc1cc(C)nc(-n2nc(C)cc2NC(=O)COC(=O)CCC(=O)c2cccs2)n1 | inconclusive: 0.0586 µM [inhibitor, full curve, poor fit] | –
44 | COc1ccc(C(=O)NCCc2c[nH]c3ccccc23)cc1OC | inconclusive: 5.22 µM [inhibitor, single point] | –

Row | Compound | Potency | activity change, negative = inhibition
45 | COc1cccc(-n2c(CCn3nc(C)c([N+](=O)[O-])c3C)n[nH]c2=S)c1 | – | inactive: 12.5%
46 | CCOc1ccccc1N(CC(=O)Nc1ccccc1C(=O)O)S(C)(=O)=O | inconclusive: 18.5 µM [inhibitor, single point] | –
47 | C=CCOC(=O)C1=C[C@@H](C2CCCCC2)C[C@@H](OCc2ccc(CO)cc2)O1 | inconclusive: 18.5 µM [inhibitor, single point] | –
48 | Cc1ccc(OC(=O)c2sc3ncn(C)c(=O)c3c2C)cc1 | inconclusive: 0.928 µM [inhibitor, partial curve, poor fit] | –
49 | CC1CCN(CCCNC(=O)CCc2nnc3n(CCc4ccccc4)c(=O)c4ccccc4n23)CC1 | – | inactive: -16.5%
50 | CCOC(=O)CC1CCCCN1C(=O)CCCn1nnnc1CN1CCC(C)CC1 (stereo unspecified) | inconclusive: 18.5 µM [inhibitor, partial curve, poor fit] | –
51 | O=C(CCC(=O)Nc1ccccc1)N/N=C/C=C/c1ccccc1 | – | inactive: 31.9%
52 | COC(=O)CCC(=O)OC1(C)C(=O)C=C2C=C(C3CC3)N(c3cccc(C#N)c3)C=C2C1=O (stereo unspecified) | inconclusive: 18.5 µM [inhibitor, single point] | –
53 | COc1ccc(CCNC(=O)CN(C)S(=O)(=O)c2ccc(Br)s2)cc1OC | active: 1.85 µM | –
54 | Cc1noc(C)c1S(=O)(=O)N1CCN(Cc2ccc3c(c2)OCO3)CC1 | inconclusive: 1.47 µM [inhibitor, partial curve] | –
55 | CC(C)C(C(=O)O)N1C(=O)/C(=C/C=C/c2ccco2)SC1=S (stereo unspecified) | inconclusive: 0.131 µM [inhibitor, full curve, poor fit] | –
56 | OCc1cn(-c2ccccc2)nc1-c1cccnc1 | – | inactive: 9.35%
57 | CCN(CC)CCN(C)C1CCC(c2ccccc2)CC1 (stereo unspecified) | inconclusive: 13.1 µM [inhibitor, partial curve, poor fit] | –
58 | COc1cccc(-c2ccc(SCC(=O)c3ccccc3)nn2)c1 | – | inactive: 10.4%
59 | CCC1(c2ccccc2)NC(=O)N(CC(=O)N2CCN(S(=O)(=O)c3ccccc3)CC2)C1=O (stereo unspecified) | inconclusive: 9.28 µM [inhibitor, partial curve, poor fit] | –
60 | CC(=O)Nc1ccc(S(=O)(=O)NCC(=O)NCCCc2ccccc2)cc1 | inconclusive: 0.828 µM [inhibitor, full curve] | –
61 | Cc1ccc(NC(=O)COC(=O)CN2CSCC2=O)cc1C | inconclusive: 10.4 µM [inhibitor, single point] | –
62 | CN1c2ccccc2C(C)(C)C12CC(c1cccc(S(=O)(=O)N3CCCC3)c1)=NO2 (stereo unspecified) | inconclusive: 18.5 µM [inhibitor, single point] | –
63 | COc1cc(S(=O)(=O)N(Cc2cccc(OC)c2OC)CC2CCCO2)ccc1-n1cnnn1 (stereo unspecified) | inconclusive: 3.7 µM [inhibitor, partial curve, poor fit] | –
64 | COc1cc(C(=O)N2CCCc3ccccc32)cc(OC)c1OC | inconclusive: 11.7 µM [inhibitor, single point] | –
65 | CCCS(=O)(=O)N1CCN(c2cc3c(cc2[N+](=O)[O-])n(C)c(=O)n3C)CC1 | – | inactive: 0.661%
66 | CCN(CC(=O)Nc1c(F)cccc1F)C(=O)CN1C(=O)C2CCCCC2C1=O (stereo unspecified) | inconclusive: 1.65 µM [inhibitor, single point] | –
